Here are results for one substance from PMC11027154 (Journal of the American Chemical Society, 2024).

This data set can be described thus: peptide synthesis. The note with it: cyclisation step.

Strings that start with PEPTIDE1 are HELM notation: dots part the residues, brackets hold end groups and non-standard residues.

As for “PEPTIDE1{C.D.A.S.C.C.I.R.E.I.S.L.L.C.E.Y.C.G.C.[am]}|CHEM1{[TMB]}|CHEM2{[TMB]}$PEPTIDE1,CHEM1,1:R3-1:R1|PEPTIDE1,CHEM1,5:R3-1:R2|PEPTIDE1,CHEM1,6:R3-1:R3|PEPTIDE1,CHEM2,14:R3-1:R1|PEPTIDE1,CHEM2,17:R3-1:R2|PEPTIDE1,CHEM2,19:R3-1:R3$$$V2.0”, the difficulty met result reads like this: (run 1) “many products were formed (Figure S1)”; (run 2) “but this also gave many products (Figure S2b)”.
